Data source: PubChem BioAssay AID1259425 (University of Nebraska Medical Center, 2018)

Test: 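Compare each knockdown with KSR1 silencing using changes in marker transcripts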 (primary screen)
Cell system: HCT116 human colon cancer cells
Reagent: siRNA pool against human genes, 50 nM siRNA
Detection: 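After 50 nM siRNA pool, branched-DNA assay measures six marker transcripts per well, minus blank, normalised to the geometric mean of two housekeeping transcripts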
Scale: BNIP3L mRNA: higher = more BNIP3L transcript after knockdown; NDRG1 mRNA: higher = more NDRG1 transcript after knockdown; BNIP3 mRNA: higher = more BNIP3 transcript after knockdown; ALDOC mRNA: higher = more ALDOC transcript after knockdown
Here is an unselected part of about 14,000 deposited reagents. A reagent listed more than once was tested more than once; the source does not tell the runs apart. Further read-outs or replicates are left out here. Reagent sequences are not shown. The record does not give: the time to read-out.

| target | BNIP3L mRNA, set 1 | NDRG1 mRNA, set 1 | BNIP3 mRNA, set 1 | ALDOC mRNA, set 1 |
| --- | --- | --- | --- | --- |
| LRRC36 | 0.123 | 0.239 | 0.349 | 0.0306 |
| UBE2O | 0.121 | 0.23 | 0.31 | 0.0364 |
| CFAP263 | 0.074 | 0.755 | 0.238 | 0.0295 |
| API5 | 0.0379 | 0.0702 | 0.226 | 0.00934 |
| ALKBH1 | 0.141 | 0.11 | 0.371 | 0.0477 |
| TMBIM1 | 0.141 | 0.207 | 0.0986 | 0.052 |
| YPEL1 | 0.131 | 0.165 | 0.231 | 0.0204 |
| ACTR1B | 0.0781 | 0.181 | 0.199 | 0.0455 |
| RAB18 | 0.116 | 0.194 | 0.339 | 0.0229 |
| ADAT1 | 0.254 | 0.302 | 0.333 | 0.0269 |
| SPRYD3 | 0.063 | 0.267 | 0.212 | 0.0272 |
| UBA7 | 0.0681 | 0.102 | 0.305 | 0.0193 |
| IRF2BP1 | 0.0851 | 0.262 | 0.467 | 0.0301 |
| CANT1 | 0.146 | 0.467 | 0.287 | 0.0304 |
| TUBB2A | 0.0523 | 0.212 | 0.255 | 0.0449 |
| PLCG2 | 0.164 | 0.201 | 0.368 | 0.0494 |
| TPP2 | 0.142 | 0.232 | 0.397 | 0.0459 |
| KLF10 | 0.143 | 0.584 | 0.423 | 0.0317 |
| NXF3 | 0.113 | 0.54 | 0.264 | 0.0228 |
| TNN | 0.0984 | 0.104 | 0.127 | 0.0359 |
| TESC | 0.108 | 0.708 | 0.354 | 0.0114 |
| TNFSF9 | 0.0904 | 0.218 | 0.236 | 0.0159 |
| TNFAIP1 | 0.127 | 0.124 | 0.366 | 0.0164 |
| CCNF | 0.146 | 0.186 | 0.37 | 0.0406 |
| FRMD5 | 0.0978 | 0.639 | 0.327 | 0.06 |
| MLPH | 0.101 | 0.194 | 0.318 | 0.0425 |
| COMMD3 | 0.098 | 0.191 | 0.286 | 0.0201 |
| ENDOD1 | 0.0966 | 0.379 | 0.196 | 0.0133 |
| SNRNP70 | 0.112 | 0.783 | 0.238 | 0.057 |
| CRYGB | 0.0755 | 0.0643 | 0.213 | 0.0282 |
| SIL1 | 0.0722 | 0.087 | 0.183 | 0.00888 |
| DTX4 | 0.149 | 0.487 | 0.576 | 0.039 |
| MAML2 | 0.118 | 0.15 | 0.25 | 0.0161 |
| TPR | 0.109 | 0.147 | 0.31 | 0.0323 |
| ORMDL1 | 0.0713 | 0.128 | 0.168 | 0.0487 |
| RNH1 | 0.128 | 0.0998 | 0.281 | 0.034 |
| MRO | 0.144 | 0.509 | 0.182 | 0.0512 |
| FOXE1 | 0.0827 | 0.323 | 0.344 | 0.00832 |
| FOXE1 | 0.17 | 0.232 | 0.34 | 0.0494 |
| AP1S2 | 0.0726 | 0.32 | 0.284 | 0.0429 |
| CKS1B | 0.124 | 0.0779 | 0.338 | 0.0058 |
| RCOR1 | 0.217 | 0.0722 | 0.38 | 0.0256 |
| ZNF571 | 0.105 | 0.113 | 0.215 | 0.0147 |
| ALPK1 | 0.0806 | 0.11 | 0.253 | 0.0136 |
| TAS2R13 | 0.172 | 0.219 | 0.329 | 0.0362 |
| C22orf23 | 0.0553 | 0.183 | 0.211 | 0.0146 |
| HOXB7 | 0.0927 | 0.435 | 0.282 | 0.0166 |
| ARPC1A | 0.12 | 0.51 | 0.311 | 0.015 |
| PPP1R7 | 0.103 | 0.0371 | 0.272 | 0.0375 |
| DDOST | 0.138 | 0.044 | 0.227 | 0.0217 |

6 of these entries in another layout.
TESC
- BNIP3L mRNA, set 1: 0.108
- NDRG1 mRNA, set 1: 0.708
- BNIP3 mRNA, set 1: 0.354
- ALDOC mRNA, set 1: 0.0114

TNFSF9
- BNIP3L mRNA, set 1: 0.0904
- NDRG1 mRNA, set 1: 0.218
- BNIP3 mRNA, set 1: 0.236
- ALDOC mRNA, set 1: 0.0159

TNFAIP1
- BNIP3L mRNA, set 1: 0.127
- NDRG1 mRNA, set 1: 0.124
- BNIP3 mRNA, set 1: 0.366
- ALDOC mRNA, set 1: 0.0164

CCNF
- BNIP3L mRNA, set 1: 0.146
- NDRG1 mRNA, set 1: 0.186
- BNIP3 mRNA, set 1: 0.37
- ALDOC mRNA, set 1: 0.0406

FRMD5
- BNIP3L mRNA, set 1: 0.0978
- NDRG1 mRNA, set 1: 0.639
- BNIP3 mRNA, set 1: 0.327
- ALDOC mRNA, set 1: 0.06

MLPH
- BNIP3L mRNA, set 1: 0.101
- NDRG1 mRNA, set 1: 0.194
- BNIP3 mRNA, set 1: 0.318
- ALDOC mRNA, set 1: 0.0425
